Data taken from paper PMC8427838.
Results are given in words; binding and its absence hold for the method and conditions named. In cells and extracts the contact can be indirect. A result given as binding can be weak or reduced; the word gives no strength. Where a sequence is shown, tags or fusion partners need not be part of it.

Biological target: GST-C-ERMAD-moesin (C-terminal ERMAD domain of moesin fused to GST) (human)
Assay: pull-down; immobilised GST fusion proteins incubated with normalized whole-cell lysates of HEK-293 cells, rocking 3 h at 4 °C; western blot (anti-GFP or anti-Myc); only the target purified

B1: TMIGD1-Myc (protein, UniProt Q6UXZ0 30-262)
chain: VLTVNGKTENYILDTTPGSQASLICAVQNHTREEELLWYREEGRVDLKSGNKINSSSVCVSSISENDNGISFTCRLGRDQSVSVSVVLNVTFPPLLSGNDFQTVEEGSNVKLVCNVKANPQAQMMWYKNSSLLDLEKSRHQIQQTSESFQLSITKVEKPDNGTYSCIAKSSLKTESLDFHLIVKDKTVGVPIEPIIAACVVIFLTLCFGLIARRKKIMKLCMKDKDPHSETAL
  binding: binds weakly
